Test results from publication PMC11425246.
No constants are given. Whether binding was seen depends on the method and setting. In cells and extracts the contact can be indirect. Some binding calls cover weakened binding; strength is not graded here.

Chains of the proteins cited; added tags and fusions are not shown.
UniProt P35222: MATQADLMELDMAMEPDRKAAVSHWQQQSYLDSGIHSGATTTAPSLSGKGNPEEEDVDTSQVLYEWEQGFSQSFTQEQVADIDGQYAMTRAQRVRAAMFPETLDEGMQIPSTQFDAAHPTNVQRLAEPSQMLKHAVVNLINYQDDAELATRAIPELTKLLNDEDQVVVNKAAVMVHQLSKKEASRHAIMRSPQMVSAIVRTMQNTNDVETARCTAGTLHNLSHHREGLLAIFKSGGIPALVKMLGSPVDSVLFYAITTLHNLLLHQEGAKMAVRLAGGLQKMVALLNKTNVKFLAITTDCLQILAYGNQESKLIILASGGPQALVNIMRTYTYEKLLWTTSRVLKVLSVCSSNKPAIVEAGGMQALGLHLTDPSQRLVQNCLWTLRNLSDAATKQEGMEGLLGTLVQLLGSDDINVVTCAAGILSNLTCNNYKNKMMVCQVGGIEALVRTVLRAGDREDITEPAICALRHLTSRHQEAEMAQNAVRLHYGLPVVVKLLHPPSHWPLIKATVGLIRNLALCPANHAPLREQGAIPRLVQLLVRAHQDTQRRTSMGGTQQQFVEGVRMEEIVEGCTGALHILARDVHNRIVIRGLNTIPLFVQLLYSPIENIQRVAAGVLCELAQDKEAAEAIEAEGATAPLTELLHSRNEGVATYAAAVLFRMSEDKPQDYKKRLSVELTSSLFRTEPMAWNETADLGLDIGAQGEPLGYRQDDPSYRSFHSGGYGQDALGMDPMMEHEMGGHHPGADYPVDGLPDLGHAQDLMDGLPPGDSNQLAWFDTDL

T1: MEN1 (endogenous) (human (endogenous in PanNET cell lines)) (UniProt O00255)
T1 sequence: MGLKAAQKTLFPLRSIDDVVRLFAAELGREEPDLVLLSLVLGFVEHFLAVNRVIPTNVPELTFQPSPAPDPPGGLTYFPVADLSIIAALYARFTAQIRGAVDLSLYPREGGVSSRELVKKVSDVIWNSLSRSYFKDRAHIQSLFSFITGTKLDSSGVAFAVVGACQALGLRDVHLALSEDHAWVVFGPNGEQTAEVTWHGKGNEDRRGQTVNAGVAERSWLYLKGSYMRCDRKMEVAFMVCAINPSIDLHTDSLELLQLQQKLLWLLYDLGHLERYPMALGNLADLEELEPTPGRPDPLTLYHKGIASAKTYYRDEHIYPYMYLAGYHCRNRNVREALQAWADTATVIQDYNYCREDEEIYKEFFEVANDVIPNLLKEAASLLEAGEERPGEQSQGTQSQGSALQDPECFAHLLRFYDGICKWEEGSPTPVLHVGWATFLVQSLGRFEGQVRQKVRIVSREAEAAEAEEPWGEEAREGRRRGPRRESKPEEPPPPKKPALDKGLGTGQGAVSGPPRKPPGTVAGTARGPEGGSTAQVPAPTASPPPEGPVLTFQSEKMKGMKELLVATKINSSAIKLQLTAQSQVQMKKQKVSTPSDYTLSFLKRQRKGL


Experiments:
[1] = biological target: T1, MEN1 (endogenous) (human (endogenous in PanNET cell lines)); experiment: co-IP; two PanNET cell lines lysed and immunoprecipitated with anti‐β‐Catenin Ab or MEN1 Ab, blotted for MEN1 or β‐Catenin, IgG as negative control; endogenous proteins
[2] = biological target: β‐Catenin (endogenous) (human (endogenous in PanNET cell lines)) (UniProt P35222); experiment: as above

binding [1]	binding [2]	Molecule
binds	–	β‐Catenin (endogenous) (from UniProt P35222 1-781)
–	binds	MEN1 (endogenous) (protein, UniProt O00255 1-610) MGLKAAQKTLFPLRSIDDVVRLFAAELGREEPDLVLLSLVLGFVEHFLAVNRVIPTNVPELTFQPSPAPDPPGGLTYFPVADLSIIAALYARFTAQIRGAVDLSLYPREGGVSSRELVKKVSDVIWNSLSRSYFKDRAHIQSLFSFITGTKLDSSGVAFAVVGACQALGLRDVHLALSEDHAWVVFGPNGEQTAEVTWHGKGNEDRRGQTVNAGVAERSWLYLKGSYMRCDRKMEVAFMVCAINPSIDLHTDSLELLQLQQKLLWLLYDLGHLERYPMALGNLADLEELEPTPGRPDPLTLYHKGIASAKTYYRDEHIYPYMYLAGYHCRNRNVREALQAWADTATVIQDYNYCREDEEIYKEFFEVANDVIPNLLKEAASLLEAGEERPGEQSQGTQSQGSALQDPECFAHLLRFYDGICKWEEGSPTPVLHVGWATFLVQSLGRFEGQVRQKVRIVSREAEAAEAEEPWGEEAREGRRRGPRRESKPEEPPPPKKPALDKGLGTGQGAVSGPPRKPPGTVAGTARGPEGGSTAQVPAPTASPPPEGPVLTFQSEKMKGMKELLVATKINSSAIKLQLTAQSQVQMKKQKVSTPSDYTLSFLKRQRKGL
